No constants are given. Whether binding was seen depends on the method and setting. Binding seen in cells or lysates may run through a third protein. A yes stands for co-enrichment or nearness to the bait. Other partners may have been found.
Molecular target: FAM114A1, bait of the co-IP followed by mass spectrometry (UniProt Q8IWE2)
Test: affinity purification with mass spectrometry; co-IP of FAM114A1; samples separated by SDS-PAGE, Coomassie stained, in-gel digestion, nano-HPLC-MS/MS; spectra searched against a human protein database; cells not told

Sequences of proteins named here, by UniProt entry; tags and fusion partners are left off.
UniProt Q8IWE2: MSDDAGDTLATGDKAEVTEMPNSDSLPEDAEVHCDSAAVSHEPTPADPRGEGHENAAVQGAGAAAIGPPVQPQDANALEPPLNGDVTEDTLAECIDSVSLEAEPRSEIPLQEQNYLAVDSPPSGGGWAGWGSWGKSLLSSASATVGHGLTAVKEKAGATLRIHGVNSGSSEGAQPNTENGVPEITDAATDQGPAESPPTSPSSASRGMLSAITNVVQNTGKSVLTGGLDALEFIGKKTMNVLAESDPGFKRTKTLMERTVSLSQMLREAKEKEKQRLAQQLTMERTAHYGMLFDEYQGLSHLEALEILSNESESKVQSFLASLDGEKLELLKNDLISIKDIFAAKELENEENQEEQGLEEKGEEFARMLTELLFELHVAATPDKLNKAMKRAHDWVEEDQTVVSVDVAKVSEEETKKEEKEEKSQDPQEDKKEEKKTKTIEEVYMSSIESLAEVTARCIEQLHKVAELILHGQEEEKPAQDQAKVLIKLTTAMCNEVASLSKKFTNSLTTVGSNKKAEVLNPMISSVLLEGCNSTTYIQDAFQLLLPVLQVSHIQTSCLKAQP
UniProt P27986: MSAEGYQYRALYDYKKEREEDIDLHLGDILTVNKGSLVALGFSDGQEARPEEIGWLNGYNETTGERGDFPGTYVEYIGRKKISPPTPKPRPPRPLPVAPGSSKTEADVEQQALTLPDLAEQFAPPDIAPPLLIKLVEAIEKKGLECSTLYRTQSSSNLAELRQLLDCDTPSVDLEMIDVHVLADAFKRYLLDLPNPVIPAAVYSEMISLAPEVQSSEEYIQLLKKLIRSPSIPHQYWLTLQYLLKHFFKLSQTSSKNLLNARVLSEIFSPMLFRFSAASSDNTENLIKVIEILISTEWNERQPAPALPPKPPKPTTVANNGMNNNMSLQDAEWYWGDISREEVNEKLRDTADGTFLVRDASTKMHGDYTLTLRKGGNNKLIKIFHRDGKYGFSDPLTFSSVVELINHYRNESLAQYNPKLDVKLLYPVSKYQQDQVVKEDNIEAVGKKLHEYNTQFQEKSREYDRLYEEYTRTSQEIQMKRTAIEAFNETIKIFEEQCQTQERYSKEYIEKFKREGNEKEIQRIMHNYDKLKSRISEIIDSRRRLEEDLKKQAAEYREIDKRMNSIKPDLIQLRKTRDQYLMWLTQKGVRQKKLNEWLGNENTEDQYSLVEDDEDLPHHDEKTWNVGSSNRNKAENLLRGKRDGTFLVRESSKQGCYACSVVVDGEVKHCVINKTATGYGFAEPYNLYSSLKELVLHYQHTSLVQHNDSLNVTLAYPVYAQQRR
UniProt Q16254: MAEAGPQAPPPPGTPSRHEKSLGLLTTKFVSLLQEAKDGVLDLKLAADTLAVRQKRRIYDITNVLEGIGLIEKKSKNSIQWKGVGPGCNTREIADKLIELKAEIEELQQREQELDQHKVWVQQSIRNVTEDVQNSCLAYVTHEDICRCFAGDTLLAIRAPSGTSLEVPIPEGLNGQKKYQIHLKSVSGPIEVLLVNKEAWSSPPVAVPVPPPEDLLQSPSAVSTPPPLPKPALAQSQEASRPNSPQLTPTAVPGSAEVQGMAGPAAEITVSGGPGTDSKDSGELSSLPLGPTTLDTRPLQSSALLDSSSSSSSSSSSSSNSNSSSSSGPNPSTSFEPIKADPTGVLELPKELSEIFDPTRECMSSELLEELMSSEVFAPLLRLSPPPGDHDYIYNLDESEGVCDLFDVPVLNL

Row | Substance | binding
1 | p85α, found in the FAM114A1 co-IP by mass spectrometry (from UniProt P27986 1-724) | binds
2 | E2F4, found in the FAM114A1 co-IP by mass spectrometry (from UniProt Q16254 1-413) | binds

— publication PMC12624017
